From PubChem BioAssay AID1347075 (National Center for Advancing Translational Sciences (NCATS), 2019)
The campaign covered roughly 400,000 compounds. About 5,500 (1.4%) were called active. Inconclusive means that the source gave no clear call. Such entries were picked first, then a sample of the others. The call rests on the fitted dose curve; in most records, active means well fitted cell-killing curve with a large enough effect; inconclusive means small, poorly fitted or top-dose-only effect, or effect the other way; inactive means flat fitted curve, though single readings scatter. Potencies of inconclusive entries are doubtful fits and often do not repeat.

Experiment: qHTS assay for MDR1-selective chemotherapeutics: Primary screen using the parental adenocarcinoma cell KB-3-1; further: nearly all actives have a fitted effect of over 60% in size
Settings: KB-3-1 viability, CellTiter-Glo ATP luminescence, 72 h; activity change, negative = cytotoxic: at 46.1 µM (top of the series)
How it was run: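 KB-3-1 parental drug-naive adenocarcinoma cells in DMEM/10% FBS, incubated 72 h at 37 C with pin-transferred compounds across a concentration series. Viability by CellTiter-Glo luminescence; concentration-response curves fitted after normalization.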
On the % scale 0 is the no-effect control and ±100 the full control effect; potency means the concentration at half of the fitted maximal effect.

SMILES | activity change, negative = cytotoxic | Potency
COc1cccc(-c2cc(C(=O)NCC3CCCO3)c3ccccc3n2)c1 (stereo not given) | inactive: 2.78% | –
CCOc1ccc(CN(C)Cc2cc(=O)oc3c(C)c(C)ccc23)cc1OC | – | inconclusive: 29.1 µM [cytotoxic, single point]
COc1ccc(Cc2[nH]n3c(=O)c(Cl)c(C)nc3c2-c2ccccc2)cc1 | – | inconclusive: 9.2 µM [cytotoxic, partial curve]
COc1c(Cl)cc(Cl)cc1/C=C(\C#N)c1nc2ccccc2[nH]1 | inactive: 3.16% | –
Cc1ccc(C(=O)Nc2cccc(C(F)(F)F)c2)cc1NC(=O)c1c[nH]c2cc(C(F)(F)F)ccc2c1=O | – | inconclusive: 18.4 µM [rising, single point]
Cc1cccc(C)c1NC(=O)CNC(=O)c1ccc(N2CCCC2)c([N+](=O)[O-])c1 | – | inconclusive: 29.1 µM [cytotoxic, single point]
Cc1ccc(C)c(NC(=O)C2CCCN(c3cnccn3)C2)c1 (stereo not given) | inactive: 1.66% | –
C[C@H](NC(=O)c1ncn2c1c(=O)[nH]c1ccc(Br)cc12)c1ccccc1 | – | inconclusive: 29.1 µM [cytotoxic, single point]
O=C(/C=C/c1ccc(S(=O)(=O)N2CCOCC2)cc1)N1CCN(c2ccccc2)CC1 | – | inconclusive: 32.6 µM [cytotoxic, partial curve, poor fit]
CCOC(=O)C(=Cc1ccc(OCc2ccc([N+](=O)[O-])cc2)c(OC)c1)C(=O)OCC | – | inconclusive: 29.1 µM [cytotoxic, single point]
CCc1ccc2[nH]c(=O)c(CN(Cc3nnnn3C3CCCC3)C3CCCCC3)cc2c1 | inactive: -8.89% | –
O=S(=O)(/C(=C/c1ccc(C(F)(F)F)cc1)c1nc2ccccc2[nH]1)c1ccccc1 | – | active: 5.17 µM
COc1ccccc1C(=O)N1CCN(c2cccc(Cl)c2)CC1 | – | inconclusive: 1.46 µM [cytotoxic, full curve, poor fit]
CCOc1cccc(C2C(C#N)=C(N)Oc3cc(C)[nH]c(=O)c32)c1OCC (stereo not given) | inactive: 0% | –
O=C(NC1CCCCC1)C(c1ccco1)N(C(=O)C(F)(F)F)C1CC1 (stereo not given) | inactive: 0.614% | –
COc1ccc(CC(N)c2csc(NC(=O)c3cc(C(C)(C)C)oc3C)n2)cc1 (stereo not given) | – | inconclusive: 23.1 µM [cytotoxic, single point]
CCOC1=C2CN(S(=O)(=O)c3ccc(C)cc3)C(c3ccc(C)cc3)CC2N(S(=O)(=O)c2ccc(C)cc2)C(c2ccccc2)C1 (stereo not given) | – | active: 3.26 µM
CC1(C)COC(Cc2ccccc2)=N1 | – | inconclusive: 0.0073 µM [rising, full curve]
CCCS(=O)(=O)N1CCCC(C(=O)NCCCN(Cc2ccccc2)C(C)C)C1 (stereo not given) | inactive: 8.43% | –
CCN(CC)CC(O)Cn1c(C)c(-c2ccccc2)c2cc([N+](=O)[O-])ccc21 (stereo not given) | – | inconclusive: 14.6 µM [cytotoxic, single point]
COC(=O)c1ccc2nc(-c3ccc(F)cc3)c(Cc3ccc(OC)cc3C)n2c1 | inactive: -7.82% | –
COc1cc(NC(=O)C(C)(C)C)c(C(=O)OCC(=O)Nc2cc(C)on2)cc1OC | – | inconclusive: 0.0052 µM [rising, full curve, poor fit]
c1cc(SC2CCCCC2)cc(-c2nc3cnccn3c2NC2CCCCC2)c1 | – | inconclusive: 29.1 µM [cytotoxic, single point]
COC(=O)c1c(C)[nH]c(C(=O)CN2C(=O)C3CC=CCC3C2=O)c1C (stereo not given) | inactive: 2.24% | –

Single entries from above.
Potency, COc1ccccc1C(=O)N1CCN(c2cccc(Cl)c2)CC1 is entered as inconclusive: 1.46 µM [cytotoxic, full curve, poor fit]
Potency, CCOC(=O)C(=Cc1ccc(OCc2ccc([N+](=O)[O-])cc2)c(OC)c1)C(=O)OCC is entered as inconclusive: 29.1 µM [cytotoxic, single point]
activity change, negative = cytotoxic, Cc1ccc(C)c(NC(=O)C2CCCN(c3cnccn3)C2)c1 (stereo not given) is entered as inactive: 1.66%
activity change, negative = cytotoxic, CCOc1cccc(C2C(C#N)=C(N)Oc3cc(C)[nH]c(=O)c32)c1OCC (stereo not given) is entered as inactive: 0%
activity change, negative = cytotoxic, CCCS(=O)(=O)N1CCCC(C(=O)NCCCN(Cc2ccccc2)C(C)C)C1 (stereo not given) is entered as inactive: 8.43%

(further entries)

SMILES | activity change, negative = cytotoxic | Potency
CCOc1ccc(C(=O)NCCN2CCCC2)cc1 | – | inconclusive: 0.206 µM [rising, full curve]
COc1ccc(-n2nc3c(N4CCC(C(=O)NCCc5ccco5)CC4)nnc(C)c3c2C)cc1 | – | inconclusive: 29.1 µM [cytotoxic, single point]
Cc1cc2cc3c(N)[nH]nc3nc2cc1C | – | inconclusive: 8.2 µM [cytotoxic, partial curve, poor fit]
CCOC(=O)CNC(=O)CN1CCCN(S(=O)(=O)c2ccc(Br)s2)CC1 | inactive: 9.7% | –
Cc1cc(=O)n2nc(N3CCC(C(=O)Nc4ccc(C(C)C)cc4)CC3)sc2n1 | – | inconclusive: 25.9 µM [cytotoxic, single point]
COc1ccc(NC(=O)c2cccc3ccccc23)cc1 | – | inconclusive: 29.1 µM [cytotoxic, single point]
CCOC(=O)/C=c1\s/c(=C\c2ccc3cc(OC)ccc3c2)c(=O)n1CC(=O)NCc1ccc2c(c1)OCO2 | – | active: 18.4 µM
CC(=O)c1ccc(S(=O)(=O)N2CCN(c3nn(C)c(=O)n(C)c3=O)CC2)cc1 | inactive: 4.31% | –
Cc1cccc(-c2ocnc2C(=O)Nc2ccccc2C(=O)N2CCCC2)c1 | – | inconclusive: 25.9 µM [cytotoxic, single point]
O=C(CCSCCC(=O)NN=Cc1cccc(Cl)c1)NN=Cc1cccc(Cl)c1 | – | inconclusive: 29.1 µM [cytotoxic, single point]
Cc1ccc(S(=O)(=O)NC(=O)Cn2nnc(-c3ccccc3)c2COc2ccc3ccccc3c2)cc1 | inactive: 0% | –
O=c1cc(-c2ccc(F)cc2)[nH][nH]1 | – | inconclusive: 8.2 µM [rising, partial curve, poor fit]
O=C(CSc1ncnc2c1cnn2-c1ccccc1)NC1CCCC1 | – | inconclusive: 18.4 µM [cytotoxic, single point]
Cc1ccc(NC(=O)C2C3C=CC4(O3)C2C(=O)N(CCCN2CCOCC2)C4C(=O)NC2CCCCC2)cc1Cl (stereo not given) | – | inconclusive: 0.0058 µM [rising, full curve, poor fit]
CCc1ccc2c(c1)C(=O)C[C@]1(CCC[C@H](C)C1)O2 | inactive: 10.9% | –
O=C(N/N=C/c1ccc2c(c1)OCO2)c1cccc(NC(=O)c2ccccc2Cl)c1 | – | inconclusive: 20.6 µM [cytotoxic, single point]
CC(=O)N1CCCc2ccc(NS(=O)(=O)c3ccc(C)c(C)c3)cc21 | – | inconclusive: 25.9 µM [cytotoxic, single point]
CCOC(=O)Cn1ccc(-c2ccccc2)c(C#N)c1=O | inconclusive: -13.7% | –
COC(=O)c1ccc(C(=O)NC(=S)Nc2nc3c(s2)CC(C)CC3)cc1 (stereo not given) | – | active: 16.4 µM
COc1cccc(C=NNC(=S)NN=Cc2cccc(OC)c2OC)c1OC | inactive: -2.63% | –
CC[C@@H](C(=O)[C@@H](C)[C@@H](O)[C@H](C)CCc1ccc(C)c(O)c1C(=O)O)[C@H]1O[C@](CC)([C@H]2CC[C@](O)(CC)[C@H](C)O2)C[C@@H]1C | – | inconclusive: 25.9 µM [cytotoxic, partial curve, poor fit]
C(=N\c1nc2ccccc2n1Cc1ccccc1)/c1cccs1 | inactive: -21.5% | –
O=C(N/N=C/c1cc(Cl)ccc1O)c1ccccc1Br | – | inconclusive: 18.4 µM [cytotoxic, single point]
CC(=O)Nc1ccc(-c2ccnc3c2CC(C)(C(=O)NCc2ccc(F)c(F)c2)O3)cc1 (stereo not given) | – | active: 8.2 µM

SMILES | activity change, negative = cytotoxic | Potency
CCOc1ccc2[nH]c3nc(SCC(=O)NC4CCCC4)nnc3c2c1 | – | inconclusive: 3.26 µM [cytotoxic, partial curve, poor fit]
CCOc1ccccc1NC(=S)N1CCC(NC(=O)C(C)(C)C)CC1 | inactive: -4.62% | –
C1CCN(CCC2CCCCN2)CC1 (stereo not given) | – | inconclusive: 20.6 µM [rising, single point]
CSc1nc(N)nc2c1ncn2CC(=O)NCC(c1ccccc1)c1ccccc1 | – | inconclusive: 0.0146 µM [rising, full curve]
CCC(C)CN1C(=O)CN(S(C)(=O)=O)CC1(C)C(=O)Nc1c(C)cccc1C (stereo not given) | inactive: 13.1% | –
Cc1ccccc1C(=O)N1CCN(c2ccc(NC(=O)c3ccc4c(c3)OCO4)cc2)CC1 | – | inconclusive: 1.64 µM [cytotoxic, full curve]
CCn1c(SCC(=O)Nc2ccccc2N2CCOCC2)nnc1-c1ccccc1O | inactive: -3.2% | –
Cc1ccc(NC(=S)NCc2ccccc2)cc1[N+](=O)[O-] | – | inconclusive: 20.6 µM [cytotoxic, single point]
Cc1cccc(CCNC(=O)Cn2ncc3c(=O)oc4ccccc4c32)c1 | inactive: -4.51% | –
CCC(C(=O)NCC1CCCO1)N(C(=O)c1snc(C(N)=O)c1N)c1ccc(Cl)cc1 (stereo not given) | inactive: -1.13% | –
COc1ccc(S(=O)(=O)N(C(=O)c2ccncc2)c2ccc3oc4c(c3c2)CCCC4)cc1 | – | inconclusive: 29.1 µM [cytotoxic, single point]
CCOC(=O)C1CCN(c2nc(-c3ccc(Br)cc3)nc3ccccc23)CC1 | – | inconclusive: 23.1 µM [cytotoxic, single point]
Cc1cc(C)n(S(=O)(=O)c2cc(C)c(C)cc2C)n1 | – | inconclusive: 18.4 µM [cytotoxic, single point]
O=C(c1ccccc1)N(CCCl)C(=O)N(CCCl)C(=O)c1ccccc1 | inactive: 26.8% | –
O=C(Cn1nc(C(=O)O)c2ccccc2c1=O)c1c[nH]c2ccccc12 | inactive: 10.1% | –
COc1ccc(-c2cc(C(=O)Nc3c(Cl)cc(Cl)cc3Cl)c3ccccc3n2)cc1OC | inactive: -15.2% | –
CCC(Nc1ccc(-c2nc(-c3ccco3)no2)cc1[N+](=O)[O-])c1ccccc1 (stereo not given) | inactive: -6.75% | –
CCc1nc(Nc2cccc(F)c2)c2oc3ccccc3c2n1 | – | inconclusive: 29.1 µM [cytotoxic, single point]
CN(C)C(CNC(=O)c1ccc(-c2ccccc2)cc1)c1ccccc1 (stereo not given) | inactive: -2.46% | –
O=C(CCl)N(CCc1ccccc1)CCc1ccccc1 | – | inconclusive: 29.1 µM [cytotoxic, single point]
C=CCN(C(=O)CCS(=O)(=O)c1cccc2nsnc12)c1ccccc1 | inactive: 1.54% | –
CC(C)CC(=O)NC(NC(=S)Nc1sc2c(c1C#N)CCCC2)C(Cl)(Cl)Cl (stereo not given) | – | inconclusive: 29.1 µM [cytotoxic, single point]
